Results as given in patent US20260109727A1, “RNA CONSTRUCTS AND USES THEREOF” (BioNTech SE, priority 2022, published 2026).

How the values were obtained:
[1] = system: EPO-encoding mRNAs (EPO mRNA); assay: In vitro transcription RNA yield with trinucleotide cap analogs (MEGAscript T7); format: biochemical; details: for RNA yield by cap concentration: cap used in the range of 3-6 mM (1, 3, 6, 9, 12 mM tested)
[2] = system: EPO-encoding mRNAs (EPO mRNA); assay: Detection of short byproducts by denaturing Urea-PAGE; format: biochemical; details: EPO m1Ψ-mRNAs

| Compound | RNA yield ([1]; EPO mRNA, AUAGU transcriptional start site) | RNA yield by cap concentration [1] | RNA yield by cap concentration ([1]; listed as (m2^7,3′-O)Gppp(m^2′-O)ApU) | amount of short contaminants [2] |
| --- | --- | --- | --- | --- |
| COC1C(OP(=O)([O-])OC[C@H]2O[C@@H](n3ccc(=O)[nH]c3=O)C(O)C2O)[C@@H](COP(=O)(O)OP(=O)(O)OP(=O)(O)OC[C@H]2O[C@@H](n3c[n+](C)c4c(O)nc(N)nc43)C(O)C2OC)O[C@H]1n1cnc2c(N)ncnc21 (some centres unmarked) [I′-1, m^7G(^3′-OMe)pppA(2′-OMe)pU] | 64 μg/Unit | high yield | High yield | – |
| COC1C(OP(=O)(O)OC[C@H]2O[C@@H](c3cn(C)c(=O)[nH]c3=O)C(O)C2O)[C@@H](COP(=O)(O)OP(=O)([O-])OP(=O)(O)OC[C@H]2O[C@@H](n3c[n+](C)c4c(O)nc(N)nc43)C(O)C2OC)O[C@H]1n1cnc2c(N)ncnc21 (some centres unmarked) [I′-6, m^7G(^3′-OMe)pppA(2′-OMe)pm^1Ψ] | – | – | – | minimal amount |
| (m2^7,3′-O)Gppp(m^2′-O)ApG [CC413, reference compound] | – | – | – | minimal amount |
